PubChem BioAssay AID1053208, Peter MacCallum Cancer Centre | 2014

Purpose: 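Find knock-downs that sensitise mouse osteosarcoma cells to doxorubicin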 (primary screen)
System: mouse osteosarcoma cells, early-passage culture from an engineered mouse model of fibroblastic bone tumour
Reagent: siRNA pool against mouse genes, 40 nM
Duration: about 120 h (48 h before drug, then 72 h with drug)
Challenge: doxorubicin 100 nM for 72 h, roughly 30-40% inhibitory dose
Measurement: 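Viability read as ATP luminescence after 72 h of 100 nM doxorubicin or none, duplicate wells averaged, scaled to non-targeting siRNA, then expressed as robust z-scores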
Scale: viability z-score with doxorubicin and doxorubicin viability vs non-targeting: higher = more viable cells under doxorubicin; viability z-score without drug: higher = more viable cells with knock-down alone; z-score of drug to no-drug ratio: higher = less drug sensitisation by knock-down
Call rule: 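a pool counts as active when its viability z-score with doxorubicin is -2 or below and its z-score without drug lies between -2 and 2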
This is an unselected part of about 17,000 deposited reagents. 788 of all reagents (4.7%) count as active. 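Calls rest on z-score classes alone; an extra cut-off of viability at most 70% of control was not applied to them.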 Entries without a mark were called inactive. The numbers tell different reagents against one gene apart. Reagent sequences are not shown.

| gene | reagent | combined z-score class | viability z-score with doxorubicin | viability z-score without drug | z-score of drug to no-drug ratio | doxorubicin viability vs non-targeting |
| --- | --- | --- | --- | --- | --- | --- |
| Unc93b1 (GeneID 54445) | 1 | no change with or without drug | -1.57 | -0.51 | -1.24 | 0.8 |
| Fthl17e (GeneID 83457) | 1 | low cell count with doxorubicin only (active) | -2.47 | 0.51 | -2.81 | 0.72 |
| Shb (GeneID 230126) | 1 | no change with or without drug | -0.67 | -1.52 | 0.45 | 0.88 |
| Maml3 (GeneID 433586) | 1 | no change with or without drug | 0.9 | 0.17 | 0.9 | 1.02 |
| Slc22a22 (GeneID 210463) | 1 | no change with or without drug | 1.01 | -0.17 | 1.35 | 1.03 |
| Inpp5f (GeneID 101490) | 1 | no change with or without drug | 0.9 | -0.84 | 1.69 | 1.02 |
| Vps50 (GeneID 73288) | 1 | no change with or without drug | -1.35 | 1.52 | -2.14 | 0.82 |
| Carmil1 (GeneID 68732) | 1 | no change with or without drug | -1.35 | -1.69 | -0.22 | 0.82 |
| Carmil1 (GeneID 68732) | 2 | no change with or without drug | 0.67 | 0.51 | 0.45 | 1 |
| Col11a1 (GeneID 12814) | 1 | no change with or without drug | 0 | -0.51 | 0.45 | 0.94 |
| Dbr1 (GeneID 83703) | 1 | no change with or without drug | 0.22 | 0.17 | 0.22 | 0.96 |
| Or13ae2 (GeneID 258393) | 1 | no change with or without drug | -0.67 | -1.01 | 0.11 | 0.88 |
| Vps53 (GeneID 68299) | 1 | no change with or without drug | 0.79 | 0.84 | 0.34 | 1.01 |
| Pcdhb6 (GeneID 93877) | 1 | no change with or without drug | -1.91 | -1.01 | -1.24 | 0.77 |
| Or10d3 (GeneID 258327) | 1 | no change with or without drug | -1.12 | -0.51 | -0.79 | 0.84 |
| Fbxo9 (GeneID 71538) | 1 | no change with or without drug | 0.45 | 0.17 | 0.45 | 0.98 |
| Gja10 (GeneID 14610) | 1 | no change with or without drug | 0.56 | 0.84 | 0.11 | 0.99 |
| Or5p72 (GeneID 258733) | 1 | no change with or without drug | -1.8 | -1.85 | -0.56 | 0.78 |
| Spc25 (GeneID 66442) | 1 | low cell count with and without drug | -2.92 | -5.06 | 0.79 | 0.68 |
| Nobox (GeneID 18291) | 1 | no change with or without drug | 0.56 | 0.84 | 0.11 | 0.99 |
| Vmn1r67 (GeneID 171263) | 1 | no change with or without drug | -1.01 | -0.51 | -0.67 | 0.85 |

An excerpt from above, reduced to “z-score of drug to no-drug ratio”.
Carmil1 (GeneID 68732) #1: -0.22
Carmil1 (GeneID 68732) #2: 0.45
Col11a1 (GeneID 12814): 0.45
Dbr1 (GeneID 83703): 0.22
Or13ae2 (GeneID 258393): 0.11
Vps53 (GeneID 68299): 0.34

Next records:
| gene | reagent | combined z-score class | viability z-score with doxorubicin | viability z-score without drug | z-score of drug to no-drug ratio | doxorubicin viability vs non-targeting |
| --- | --- | --- | --- | --- | --- | --- |
| Slc9a4 (GeneID 110895) | 1 | no change with or without drug | 0.9 | -0.34 | 1.35 | 1.02 |
| Plxna4os2 (GeneID 330283) | 1 | no change with or without drug | -1.24 | 1.52 | -2.02 | 0.83 |
| Setd7 (GeneID 73251) | 1 | high cell count with and without drug | 2.02 | 2.53 | 0.45 | 1.12 |
| Mcts2 (GeneID 66405) | 1 | no change with or without drug | -1.8 | 1.52 | -2.59 | 0.78 |
| Fmnl3 (GeneID 22379) | 1 | no change with or without drug | 0.45 | 1.01 | -0.11 | 0.98 |
| Hacd2 (GeneID 70757) | 1 | no change with or without drug | 1.01 | 0.17 | 1.01 | 1.03 |
| Gdf9 (GeneID 14566) | 1 | no change with or without drug | -1.12 | -0.67 | -0.67 | 0.84 |
| Bdh2 (GeneID 69772) | 1 | no change with or without drug | 0.9 | 0.34 | 0.79 | 1.02 |
| Mrpl34 (GeneID 94065) | 1 | no change with or without drug | 0.67 | -0.84 | 1.46 | 1 |
| Csprs (GeneID 114564) | 1 | low cell count with doxorubicin only (active) | -2.02 | 0.17 | -2.14 | 0.76 |
| Zfp639 (GeneID 67778) | 1 | no change with or without drug | 0.34 | 0.51 | 0.11 | 0.97 |
| Paics (GeneID 67054) | 1 | no change with or without drug | 0.34 | -0.67 | 1.01 | 0.97 |
| Cpd (GeneID 12874) | 1 | no change with or without drug | 1.57 | 0.17 | 1.69 | 1.08 |
| Nlrp12 (GeneID 378425) | 1 | no change with or without drug | 1.35 | 1.01 | 0.79 | 1.06 |
| Usp24 (GeneID 329908) | 1 | low cell count with doxorubicin only (active) | -2.02 | -1.35 | -1.24 | 0.76 |
| Rassf7 (GeneID 66985) | 1 | no change with or without drug | 1.01 | 0.51 | 0.79 | 1.03 |
| Cyren (GeneID 78412) | 1 | no change with or without drug | 0 | 0.51 | -0.22 | 0.94 |
| Slco2a1 (GeneID 24059) | 1 | no change with or without drug | -0.9 | -0.51 | -0.56 | 0.86 |
| Rab6b (GeneID 270192) | 1 | no change with or without drug | 1.12 | -0.34 | 1.57 | 1.04 |
| Acr (GeneID 11434) | 1 | no change with or without drug | 0.67 | -0.84 | 1.46 | 1 |
| Ecel1 (GeneID 13599) | 1 | no change with or without drug | -0.45 | -1.52 | 0.79 | 0.9 |
| Vstm2l (GeneID 277432) | 1 | no change with or without drug | 0.45 | -0.84 | 1.24 | 0.98 |
| Ccn5 (GeneID 22403) | 1 | high cell count without drug only | 0.22 | 2.02 | -0.9 | 0.96 |
| Fbxw7 (GeneID 50754) | 1 | no change with or without drug | -1.57 | 0.84 | -2.02 | 0.8 |
| Mapk10 (GeneID 26414) | 1 | no change with or without drug | -1.35 | -0.51 | -1.01 | 0.82 |
| Mapk10 (GeneID 26414) | 2 | high cell count with and without drug | 2.02 | 2.53 | 0.45 | 1.12 |
| Jpt1 (GeneID 15374) | 1 | no change with or without drug | 0.22 | 0.17 | 0.22 | 0.96 |
| Or2ag1b (GeneID 258444) | 1 | no change with or without drug | -0.22 | -1.01 | 0.56 | 0.92 |
| Ptges2 (GeneID 96979) | 1 | no change with or without drug | 0.45 | 0.34 | 0.34 | 0.98 |
